In all, about 300,000 compounds went through this assay and about 5,400 (1.8%) were called active. Inconclusive results, whose numbers are uncertain, are shown with a selection of clear calls. The call rests on the fitted dose curve; tested in HEK293 cells. Potencies of inconclusive entries are doubtful fits and often do not repeat.
Assay: qHTS for inhibitors of binding or entry into cells for Marburg Virus
Details: Marburg virus pseudotyped entry inhibition, cell reporter; activity change, negative = inhibition: at 37.8 µM (top of the series) unless noted
For `O=C(NCCCN1CCN(c2ccc(F)cc2)CC1)NC12CC3CC(CC(C3)C1)C2`, the Potency was inconclusive: 35.5 µM [inhibitor, single point].
For `Cn1nc(C(=O)NNC(=O)c2cccc(Cl)c2)c2ccccc2c1=O`, the Potency was inconclusive: 1.26 µM [inhibitor, single point].
In the case of `CNC(=S)N1N=C(c2ccc(C)cc2)CC1c1cc(OC)ccc1OC` (centres undefined), the Potency is reported as inconclusive: 20 µM [inhibitor, partial curve, poor fit].
In the case of `Cc1cccc(OCC(=O)Nc2ccccc2C(F)(F)F)c1`, the Potency is reported as inconclusive: 3.16 µM [activator, single point].
For `N#C/C(=C/c1ccc(OCc2ccc(C(=O)O)cc2)c(Br)c1)c1cccc(F)c1`, the Potency was inconclusive: 5.62 µM [inhibitor, full curve, poor fit].
For `CCOC(=O)N1CCc2c(sc3c2c(=O)n(CCc2ccccc2)c(=O)n3Cc2c(F)cccc2Cl)C1`, the “activity change, negative = inhibition” value was inactive: -13.8% [at 46.1 µM].
With `O=C(Cc1n[nH]c(=O)c2ccccc12)OCC(=O)c1ccc2c(c1)OCCO2` the Potency was inconclusive: 1.46 µM [inhibitor, partial curve, poor fit].
With `CCOC(=O)C(NS(=O)(=O)c1ccc(C)cc1)(C(F)(F)F)P(=O)(OCC(C)C)OCC(C)C` (centres undefined) the Potency was inconclusive: 22.4 µM [inhibitor, single point].
In the case of `C/C(=N\NC(=O)CSc1nc2ccccc2c(=O)n1-c1ccccc1C)c1cccs1`, the Potency is reported as inconclusive: 35.5 µM [inhibitor, single point].
For `c1ccc(OCCCc2nc(-c3ccccn3)no2)cc1`, the “activity change, negative = inhibition” value was inactive: -8.52%.
For `CCCNc1ccc(C(=O)OCC)cc1[N+](=O)[O-]`, the “activity change, negative = inhibition” value was inactive: 4.57%.
For `Cc1cc(C)c(/C=N/n2c(C)cc(C)c(C#N)c2=O)c(C)c1`, the Potency was inconclusive: 0.562 µM [activator, full curve, poor fit].
For `Cc1nnsc1C(=O)NC1CCCc2c1cnn2-c1ccc(F)cc1F` (centres undefined), the Potency was inconclusive: 1.41 µM [inhibitor, full curve].
In the case of `Cc1cc2nnc(SCC(=O)NC3CCCCC3)n2c(N)n1`, the “activity change, negative = inhibition” value is reported as inactive: -3.44% [at 46.1 µM].
With `Cc1ccc(NC(=O)c2ccc(Cl)nc2)cc1S(=O)(=O)N1CCOCC1` the Potency was inconclusive: 11.2 µM [inhibitor, partial curve, poor fit].
In the case of `CCOC(=O)c1cnc2nc(SC)nn2c1N`, the Potency is reported as inconclusive: 35.5 µM [activator, single point].
With `COc1ccc(CCNC(=O)c2ccc3nc[nH]c3c2)cc1` the Potency was inconclusive: 5.62 µM [inhibitor, single point].
In the case of `O=C(N/N=C/c1sc(N2CCOCC2)nc1-c1ccccc1)c1ccc(O)cc1`, the “activity change, negative = inhibition” value is reported as inactive: -8.88% [at 46.1 µM].
In the case of `Cc1onc(-c2c(Cl)cccc2Cl)c1C(=O)NCCc1ccc(S(N)(=O)=O)cc1`, the Potency is reported as inconclusive: 20.6 µM [inhibitor, partial curve, poor fit].
On the % scale 0 is the no-effect control and ±100 the full control effect; potency means the concentration at half of the fitted maximal effect.
